{"source": "patent US7767789B2", "about": "“Truncated proteins as cancer markers” (University Hopitals of Cleveland, priority 2005, dated 2010)", "test_system": "CaSki cells", "assay": "DNA solubilization assay (apoptosis)", "format": "cell-based, human", "details": "pretreatment: EGF 0.2 nM, zinterol/terbutaline 1 μM 24 h; forskolin 10 μM 14 h with IBMX; isoproterenol 10 μM; phenylephrine 100 μM", "procedure": "Twenty-four hours before the end of the experiment, cells were labeled with [^3H]thymidine (specific activity, 93 Ci/mmol; 5 μCi/1×10^6 cells) for 16 h. The medium was removed, and cells were washed three times with fresh medium lacking [^3H]thymidine and were incubated in the same medium for an additional 6 h. At the end of incubation, the supernatant was stored, and cells were lysed in 0.5 ml lysis buffer (10 mM Tris-HCl, pH 7.5; plus 1 mM EDTA-0.2% Triton X-100) for 1 h at 4° C. The intact chromatin was separated from the fragmented DNA by 5 min centrifugation at 4° C. in Eppendorf microcentrifuge at 12,000×g. The supernatant (lysate) was stored, while the pellet was resuspended in 0.5 ml of 1% sodium dodecyl sulfate (SDS). The radioactivity contained in the supernatants, lysates; and pellets was counted in a scintillation counter, and DNA fragmentation was calculated as: [% Solubilized DNA]=([cpm supernatant+cpm lysates]/[cpm supernatant+cpm lysate+cpm pellet])×100.", "note": "At least one compound was matched to its structure with a doubt left.", "data": [{"compound": "C=C[C@@]1(C)CC(=O)[C@]2(O)[C@@]3(C)[C@@H](O)CCC(C)(C)[C@@H]3[C@H](O)[C@H](OC(C)=O)[C@@]2(C)O1", "note": "[forskolin]", "values": [{"measurement": "effect on BzATP-induced apoptosis (DNA solubilization)", "result": "inhibited"}]}]}
